## Results of single-concentration screens

Amino acid sequences for entries named in this document (tags omitted). Residues count along the entry.
UniProt Q8IDJ8, 1-583: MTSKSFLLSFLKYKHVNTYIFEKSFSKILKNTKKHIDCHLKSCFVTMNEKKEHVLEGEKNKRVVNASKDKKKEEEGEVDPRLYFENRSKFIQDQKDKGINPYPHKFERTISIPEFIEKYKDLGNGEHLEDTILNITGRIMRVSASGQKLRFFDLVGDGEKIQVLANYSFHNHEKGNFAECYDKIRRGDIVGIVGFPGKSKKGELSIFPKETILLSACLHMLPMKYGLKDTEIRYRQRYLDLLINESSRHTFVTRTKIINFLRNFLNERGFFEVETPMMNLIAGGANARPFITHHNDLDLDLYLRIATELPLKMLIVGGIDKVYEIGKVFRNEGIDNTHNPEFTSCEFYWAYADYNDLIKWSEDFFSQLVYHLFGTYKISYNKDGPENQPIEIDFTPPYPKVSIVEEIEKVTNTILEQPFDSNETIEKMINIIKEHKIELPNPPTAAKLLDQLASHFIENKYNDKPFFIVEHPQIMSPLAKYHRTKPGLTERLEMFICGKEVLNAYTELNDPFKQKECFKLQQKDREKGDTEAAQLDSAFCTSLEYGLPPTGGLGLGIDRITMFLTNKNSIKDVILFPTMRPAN
UniProt A4I591, 1-473: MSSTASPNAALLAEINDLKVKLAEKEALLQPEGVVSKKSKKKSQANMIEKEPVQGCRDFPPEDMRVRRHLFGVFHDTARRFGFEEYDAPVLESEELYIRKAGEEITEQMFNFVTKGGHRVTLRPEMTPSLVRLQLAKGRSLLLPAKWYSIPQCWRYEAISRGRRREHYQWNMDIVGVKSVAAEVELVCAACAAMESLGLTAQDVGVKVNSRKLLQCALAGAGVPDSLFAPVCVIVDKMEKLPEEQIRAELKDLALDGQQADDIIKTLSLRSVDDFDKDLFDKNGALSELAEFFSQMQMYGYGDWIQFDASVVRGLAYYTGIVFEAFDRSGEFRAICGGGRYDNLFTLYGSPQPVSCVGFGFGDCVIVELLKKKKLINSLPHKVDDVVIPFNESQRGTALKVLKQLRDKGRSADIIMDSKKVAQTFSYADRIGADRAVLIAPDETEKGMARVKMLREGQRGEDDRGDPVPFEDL

Data taken from ChEMBL document CHEMBL3988442, “University of Dundee, Small-Polar-MMV Screening Library” (2021).

Results are given as percent effect.
The record does not define 0% and 100%; most values in the screen are far below 50% and negative numbers occur (in some assays of this library far below -100).
Compounds were drawn at random from those tested, without regard to their results.
A dash means the value is not listed here; it may have been measured.

T. brucei: 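Whole-parasite assay of Trypanosoma brucei over 72 hours; the read-out is not stated. Compounds at 30 µM. Higher reads as stronger inhibition (inferred: compounds with an IC50 in retests scored well above the rest). Values scatter widely below zero; nearly all retest evidence comes from the higher of the two concentrations used. Of about 64,000 compounds tested this way, about 940 (1.5%) reached 50% or more in at least one test.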
PfKRS1: 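Lysine-tRNA ligase, Plasmodium falciparum 3D7 (UniProt Q8IDJ8). Enzyme assay of the cytosolic lysyl-tRNA synthetase in 384-well plates, read by luminescence. Tested at 30 µM. Higher reads as stronger inhibition, judged from the few compounds that gave an IC50. Of about 69,000 compounds tested this way, about 49 (0.071%) reached 50% or more in at least one test.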
LiHisRS: 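Histidine-tRNA ligase, Leishmania infantum (UniProt A4I591). Enzyme assay of histidyl-tRNA synthetase; the read-out is not stated. Compounds at 30 µM. Higher reads as stronger inhibition (inferred: compounds with an IC50 in retests scored well above the rest). The assay is labelled LdHisRS but filed under L. infantum. About 69,000 compounds were tested under these conditions; 0.6% (about 410) showed 50% or more at least once.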
Toxoplasma: 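Assay of Toxoplasma gondii numbers, read through their beta-galactosidase reporter with a colour substrate. Concentration: 10 µM. Higher reads as fewer parasites (inferred from which compounds were picked for retests). Of about 67,000 compounds tested this way, about 260 (0.38%) reached 50% or more in at least one test.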

compound	T. brucei	PfKRS1	LiHisRS	Toxoplasma
[H][C@@]12CS(=O)(=O)C[C@]1([H])N(C(=O)c1ncoc1C)CCN2Cc1ccccc1	-32.2%	-	-	1.839%
O=C(O)C(F)(F)F.[H][C@@]12COC[C@]1([H])[C@H](NC(=O)C1CCC1)CN2Cc1ccccn1	-63.21%	-	-	0.7901%
CSCCCN1C(=O)CC[C@H]2CN(Cc3ncc[nH]3)CC[C@H]21	-	2.2%	1.333%	-
CCNC(=O)[C@@H]1C[C@H](NC(=O)c2cc(CC)n[nH]2)CN1Cc1ccsc1	14.77%	3.575%	20.78%	-15.74%
CSCC(C)(O)CNC(=O)c1ccc(F)cc1Br (stereo not given)	-22.23%	1.496%	6.061%	3.737%
Oc1cc(CNCCN2CCCCC2)nc2c(F)cccc12	5.012%	8.678%	18.58%	3.508%
CS(=O)(=O)c1cn[nH]c1C1CCCCN1C(=O)c1cncs1 (stereo not given)	-22.18%	-0.02304%	22.11%	-5.306%
CNS(=O)(=O)c1ccc(CNC(=O)N2CCOC(C)C2)cc1 (stereo not given)	-5.397%	0.7439%	15.32%	-1.25%
COc1cccc(CN(C)C(=O)NCc2c(C)cc(C)[nH]c2=O)c1	20.24%	1.244%	13.16%	11.45%
Cc1c[nH]nc1C1CCN(C(=O)Cn2cccn2)C1 (stereo not given)	-30.39%	0.9724%	10.34%	-4.739%
[H][C@@]12C[C@@H](c3ccnc(C)n3)O[C@]1([H])CN(S(=O)(=O)c1ccccc1)C2	-31.22%	-	-	9.283%
CCOCC(=O)N1CCC(C(O)c2ccc(F)cc2)CC1 (stereo not given)	-29.16%	2.385%	1.571%	9.301%
[H][C@]12CC[C@@]3(N=C(C)N(CC)C3=O)[C@@]1([H])CN(C(=O)Nc1ccc(F)cc1)C2	-31.63%	-	-	1.862%
O=C1CC(N2CCN(c3ccccc3O)CC2)C(=O)N1Cc1cccs1 (stereo not given)	-20.17%	-0.09146%	14.94%	0%
CC(c1cccc(-c2ncc(C#N)c(N)n2)c1)N(C)C (stereo not given)	-6.101%	-0.1373%	18.68%	-31.32%
CCCNC(=O)COc1cc(C)c2c(C)nn(-c3ccc(C)cc3)c2n1	2.491%	-0.8289%	8.219%	-10.43%
Cc1ccsc1[C@@H]1CCN(C(=O)Cn2cc3ccccc3n2)C[C@H]1O	-46.39%	3.37%	20.55%	5.606%
Cc1nc(N2CCOc3ccc(CO)cc3C2)c2nc(C)oc2n1	-107.9%	8.907%	6.579%	3.924%
O=C(c1cc(-n2cnnn2)ccc1Cl)N1CCCCCC1	-17.68%	4.981%	20%	-8.192%
O=C(O)C(F)(F)F.[H][C@@]12CCN(C(=O)c3cscn3)[C@@]1([H])CCN2CC1CCOC1 (stereo not given in full)	-46.23%	-	-	20.9%
[H][C@@]12CCN(C(=O)C3CC(F)(F)C3)C[C@]1(COCC1CC1)CCO2	-57.55%	-	-	11.33%
CNc1snc(C)c1C(=O)N1CCCC(n2cc(C)cn2)C1 (stereo not given)	-2.34%	2.649%	0%	0.5392%
CN(C)c1cnnc(N2CCN(C(=O)Cc3ccccc3)CC2)c1	-4.213%	-3.588%	5.217%	3.346%
CN(C)CCN1CCN(Cc2cccc(C#N)c2)Cc2cccnc21	-	0.9723%	13.89%	-
O=C(CCn1ccccc1=O)Nc1ccc(C(=O)O)cc1	4.206%	1.8%	28.21%	-7.96%
CC1CCN(CC2CCCN(C(=O)Nc3ccccn3)C2)CC1 (stereo not given)	-1.508%	1.934%	13.33%	-1.598%
Cc1cnn(CCC(=O)N2CCCC(c3cc(C(N)=O)[nH]n3)C2)c1 (stereo not given)	8.639%	1.565%	16.67%	3.044%
O=S(=O)(c1cccnc1)N1C[C@H]2CCC[C@@]2(COc2ccccn2)C1	-	-0.2785%	10.26%	-
CC(C)Cc1cc(C(=O)N2CC(OCc3ccccc3F)C2)n(C)n1	8.784%	1.521%	9.677%	1.21%
CN(C)CC1(O)CCCN(C(=O)c2ccccc2-n2cncn2)C1 (stereo not given)	-13.77%	6.406%	22.58%	2.075%
COCc1cc(NCCc2ccc(S(N)(=O)=O)cc2)n2nccc2n1	-11.92%	6.931%	15.66%	-25.26%
O=C(NCCNc1ccc(C(F)(F)F)cn1)c1ccc(Br)cc1F	-58.14%	-1.868%	-5.333%	-46.96%
Cc1nc(C)n(C2CCCN(C(=O)COCc3ccccc3)C2)n1 (stereo not given)	15.11%	4.023%	8.219%	-2.012%
CCC(=O)Nc1nnc(CCCOc2ccccc2)s1	0.06976%	-3.627%	5.825%	0.9564%
COCCN1C(=O)C2(CCC(C(=O)Nc3ccc(C)cc3)CC2)N=C1C (stereo not given)	-	-1.406%	21.37%	-2.121%
COc1ccccc1C(=O)N1CC(=O)N(CC2CC2)CC(O)C1 (stereo not given)	9.705%	4.785%	12.24%	-11.51%
Fc1cccc(-c2nnn3c2COC(CNCc2ccsc2)C3)c1 (stereo not given)	-	6.245%	20%	-
Cc1nc(C)n(CC2CCCN2Cc2nc(C)c3ccccc3n2)n1 (stereo not given)	68.42%	1.917%	56.52%	-19.65%
CCC(C)(CC(=O)OC)NC(=O)c1ccc(C(C)=O)cc1 (stereo not given)	-50.72%	-1.626%	17.58%	1.924%
CN(Cc1ccccc1)CC(C)(C)NC(=O)c1cnccn1	-6.632%	4.131%	10.64%	-10.55%
COCc1cc(N2CCOC(c3ccc(Cl)c(Cl)c3)C2)ncn1 (stereo not given)	-80.84%	0.5521%	16.39%	12.55%
COc1ccc(CC(=O)N2CCC[C@@H](N)[C@@H]2c2ccccc2F)cc1	-	-0.8685%	7.194%	-
O=C(O)C(F)(F)F.[H][C@@]12CCCO[C@]1([H])[C@H](NS(C)(=O)=O)CN(Cc1ccco1)C2	-10.95%	-	-	15.66%
O=C(O)C(F)(F)F.[H][C@@]12CN(Cc3cccs3)C[C@H](C(=O)NCCOC)[C@]1([H])CCO2	-47.27%	-	-	4.438%
CCn1c(NCc2ccccn2)nc2c(C)nn(C)c2c1=O	16.31%	2.678%	15.52%	61.62%
O=C(COCc1ccccc1Cl)N1CCN(c2cnccn2)CC1	4.087%	16.22%	4.505%	-17.16%
O=c1[nH]c(CN2CCCC(Cn3cncn3)C2)nc2ccccc12 (stereo not given)	-	0.6343%	20.18%	5.986%
CC(NC(=O)NCCCn1cncn1)c1ccc(C#N)cc1 (stereo not given)	-	2.361%	12.84%	-8.799%
O=C1CO[C@@H]2CN(C3CCOCC3)C[C@H]2N1Cc1cccc(F)c1	-	1.533%	2.941%	-
COc1ccc(C(=O)N2CCC(Oc3ccc(C)cc3)(C(=O)O)CC2)o1	-19.94%	1.164%	2.083%	-7.568%
CCO[C@@H]1CC[C@H]2[C@H]1OCCN2Cc1ccoc1	-	2.105%	2.727%	-
CC(NC(=O)NCCCN(C)S(C)(=O)=O)c1cccnc1 (stereo not given)	-3.602%	0.2489%	4.348%	-36.67%
CN(C)C(=O)CC1CC2(CCN(C(=O)N(C)C)CC2)Oc2ccccc21 (stereo not given)	-23.26%	4.657%	18.87%	4.094%
CCCNC(=O)c1cccc(CNCc2csc(C(C)C)n2)c1	-21.57%	6.439%	24.69%	7.368%

The last 7 entries again:

compound,T. brucei,PfKRS1,LiHisRS,Toxoplasma
CC(NC(=O)NCCCn1cncn1)c1ccc(C#N)cc1 (stereo not given),-,2.361%,12.84%,-8.799%
O=C1CO[C@@H]2CN(C3CCOCC3)C[C@H]2N1Cc1cccc(F)c1,-,1.533%,2.941%,-
COc1ccc(C(=O)N2CCC(Oc3ccc(C)cc3)(C(=O)O)CC2)o1,-19.94%,1.164%,2.083%,-7.568%
CCO[C@@H]1CC[C@H]2[C@H]1OCCN2Cc1ccoc1,-,2.105%,2.727%,-
CC(NC(=O)NCCCN(C)S(C)(=O)=O)c1cccnc1 (stereo not given),-3.602%,0.2489%,4.348%,-36.67%
CN(C)C(=O)CC1CC2(CCN(C(=O)N(C)C)CC2)Oc2ccccc21 (stereo not given),-23.26%,4.657%,18.87%,4.094%
CCCNC(=O)c1cccc(CNCc2csc(C(C)C)n2)c1,-21.57%,6.439%,24.69%,7.368%